Literature values in patent US8974836B2, “Angiogenesis regulating composition and method for regulating angiogenesis” (Air Water, Inc., priority 2009, dated 2015).
Some of these results come from one statement about several compounds together. At least one compound was matched to its structure with a doubt left.

Details: in vivo; cited from earlier work

In the case of `O=[N+]([O-])[O-].[Na+]` [sodium nitrate], the biological half-lives is given as 3-5 hours.
